No constants are given. Whether binding was seen depends on the method and setting. In cells and extracts the contact can be indirect. A yes stands for co-enrichment or nearness to the bait. Other partners may have been found.
T1: Fsd2 (Fibronectin Type III and SPRY Domain Containing 2) (mouse (endogenous in mouse muscle and heart)) (UniProt Q8BZ52)
T1 sequence: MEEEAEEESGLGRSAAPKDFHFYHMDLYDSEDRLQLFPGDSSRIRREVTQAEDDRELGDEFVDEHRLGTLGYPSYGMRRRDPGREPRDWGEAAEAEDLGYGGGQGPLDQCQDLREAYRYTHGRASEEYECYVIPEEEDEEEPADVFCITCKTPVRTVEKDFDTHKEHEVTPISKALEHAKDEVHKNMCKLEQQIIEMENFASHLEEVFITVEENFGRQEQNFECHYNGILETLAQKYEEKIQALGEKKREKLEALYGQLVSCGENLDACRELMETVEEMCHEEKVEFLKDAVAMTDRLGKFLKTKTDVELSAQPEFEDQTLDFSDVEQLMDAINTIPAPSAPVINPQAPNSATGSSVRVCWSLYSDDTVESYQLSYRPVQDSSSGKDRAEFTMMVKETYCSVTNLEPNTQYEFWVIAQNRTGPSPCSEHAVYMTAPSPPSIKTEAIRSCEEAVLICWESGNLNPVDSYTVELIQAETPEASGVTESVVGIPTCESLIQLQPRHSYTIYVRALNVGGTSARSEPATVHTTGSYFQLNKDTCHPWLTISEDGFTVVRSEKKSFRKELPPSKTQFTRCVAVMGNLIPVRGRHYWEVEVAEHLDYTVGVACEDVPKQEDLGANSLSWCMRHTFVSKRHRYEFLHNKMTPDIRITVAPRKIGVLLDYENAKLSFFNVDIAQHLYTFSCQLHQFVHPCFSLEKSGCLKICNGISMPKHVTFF

The chains behind the UniProt entries cited, without tags or fusion partners.
UniProt Q62407: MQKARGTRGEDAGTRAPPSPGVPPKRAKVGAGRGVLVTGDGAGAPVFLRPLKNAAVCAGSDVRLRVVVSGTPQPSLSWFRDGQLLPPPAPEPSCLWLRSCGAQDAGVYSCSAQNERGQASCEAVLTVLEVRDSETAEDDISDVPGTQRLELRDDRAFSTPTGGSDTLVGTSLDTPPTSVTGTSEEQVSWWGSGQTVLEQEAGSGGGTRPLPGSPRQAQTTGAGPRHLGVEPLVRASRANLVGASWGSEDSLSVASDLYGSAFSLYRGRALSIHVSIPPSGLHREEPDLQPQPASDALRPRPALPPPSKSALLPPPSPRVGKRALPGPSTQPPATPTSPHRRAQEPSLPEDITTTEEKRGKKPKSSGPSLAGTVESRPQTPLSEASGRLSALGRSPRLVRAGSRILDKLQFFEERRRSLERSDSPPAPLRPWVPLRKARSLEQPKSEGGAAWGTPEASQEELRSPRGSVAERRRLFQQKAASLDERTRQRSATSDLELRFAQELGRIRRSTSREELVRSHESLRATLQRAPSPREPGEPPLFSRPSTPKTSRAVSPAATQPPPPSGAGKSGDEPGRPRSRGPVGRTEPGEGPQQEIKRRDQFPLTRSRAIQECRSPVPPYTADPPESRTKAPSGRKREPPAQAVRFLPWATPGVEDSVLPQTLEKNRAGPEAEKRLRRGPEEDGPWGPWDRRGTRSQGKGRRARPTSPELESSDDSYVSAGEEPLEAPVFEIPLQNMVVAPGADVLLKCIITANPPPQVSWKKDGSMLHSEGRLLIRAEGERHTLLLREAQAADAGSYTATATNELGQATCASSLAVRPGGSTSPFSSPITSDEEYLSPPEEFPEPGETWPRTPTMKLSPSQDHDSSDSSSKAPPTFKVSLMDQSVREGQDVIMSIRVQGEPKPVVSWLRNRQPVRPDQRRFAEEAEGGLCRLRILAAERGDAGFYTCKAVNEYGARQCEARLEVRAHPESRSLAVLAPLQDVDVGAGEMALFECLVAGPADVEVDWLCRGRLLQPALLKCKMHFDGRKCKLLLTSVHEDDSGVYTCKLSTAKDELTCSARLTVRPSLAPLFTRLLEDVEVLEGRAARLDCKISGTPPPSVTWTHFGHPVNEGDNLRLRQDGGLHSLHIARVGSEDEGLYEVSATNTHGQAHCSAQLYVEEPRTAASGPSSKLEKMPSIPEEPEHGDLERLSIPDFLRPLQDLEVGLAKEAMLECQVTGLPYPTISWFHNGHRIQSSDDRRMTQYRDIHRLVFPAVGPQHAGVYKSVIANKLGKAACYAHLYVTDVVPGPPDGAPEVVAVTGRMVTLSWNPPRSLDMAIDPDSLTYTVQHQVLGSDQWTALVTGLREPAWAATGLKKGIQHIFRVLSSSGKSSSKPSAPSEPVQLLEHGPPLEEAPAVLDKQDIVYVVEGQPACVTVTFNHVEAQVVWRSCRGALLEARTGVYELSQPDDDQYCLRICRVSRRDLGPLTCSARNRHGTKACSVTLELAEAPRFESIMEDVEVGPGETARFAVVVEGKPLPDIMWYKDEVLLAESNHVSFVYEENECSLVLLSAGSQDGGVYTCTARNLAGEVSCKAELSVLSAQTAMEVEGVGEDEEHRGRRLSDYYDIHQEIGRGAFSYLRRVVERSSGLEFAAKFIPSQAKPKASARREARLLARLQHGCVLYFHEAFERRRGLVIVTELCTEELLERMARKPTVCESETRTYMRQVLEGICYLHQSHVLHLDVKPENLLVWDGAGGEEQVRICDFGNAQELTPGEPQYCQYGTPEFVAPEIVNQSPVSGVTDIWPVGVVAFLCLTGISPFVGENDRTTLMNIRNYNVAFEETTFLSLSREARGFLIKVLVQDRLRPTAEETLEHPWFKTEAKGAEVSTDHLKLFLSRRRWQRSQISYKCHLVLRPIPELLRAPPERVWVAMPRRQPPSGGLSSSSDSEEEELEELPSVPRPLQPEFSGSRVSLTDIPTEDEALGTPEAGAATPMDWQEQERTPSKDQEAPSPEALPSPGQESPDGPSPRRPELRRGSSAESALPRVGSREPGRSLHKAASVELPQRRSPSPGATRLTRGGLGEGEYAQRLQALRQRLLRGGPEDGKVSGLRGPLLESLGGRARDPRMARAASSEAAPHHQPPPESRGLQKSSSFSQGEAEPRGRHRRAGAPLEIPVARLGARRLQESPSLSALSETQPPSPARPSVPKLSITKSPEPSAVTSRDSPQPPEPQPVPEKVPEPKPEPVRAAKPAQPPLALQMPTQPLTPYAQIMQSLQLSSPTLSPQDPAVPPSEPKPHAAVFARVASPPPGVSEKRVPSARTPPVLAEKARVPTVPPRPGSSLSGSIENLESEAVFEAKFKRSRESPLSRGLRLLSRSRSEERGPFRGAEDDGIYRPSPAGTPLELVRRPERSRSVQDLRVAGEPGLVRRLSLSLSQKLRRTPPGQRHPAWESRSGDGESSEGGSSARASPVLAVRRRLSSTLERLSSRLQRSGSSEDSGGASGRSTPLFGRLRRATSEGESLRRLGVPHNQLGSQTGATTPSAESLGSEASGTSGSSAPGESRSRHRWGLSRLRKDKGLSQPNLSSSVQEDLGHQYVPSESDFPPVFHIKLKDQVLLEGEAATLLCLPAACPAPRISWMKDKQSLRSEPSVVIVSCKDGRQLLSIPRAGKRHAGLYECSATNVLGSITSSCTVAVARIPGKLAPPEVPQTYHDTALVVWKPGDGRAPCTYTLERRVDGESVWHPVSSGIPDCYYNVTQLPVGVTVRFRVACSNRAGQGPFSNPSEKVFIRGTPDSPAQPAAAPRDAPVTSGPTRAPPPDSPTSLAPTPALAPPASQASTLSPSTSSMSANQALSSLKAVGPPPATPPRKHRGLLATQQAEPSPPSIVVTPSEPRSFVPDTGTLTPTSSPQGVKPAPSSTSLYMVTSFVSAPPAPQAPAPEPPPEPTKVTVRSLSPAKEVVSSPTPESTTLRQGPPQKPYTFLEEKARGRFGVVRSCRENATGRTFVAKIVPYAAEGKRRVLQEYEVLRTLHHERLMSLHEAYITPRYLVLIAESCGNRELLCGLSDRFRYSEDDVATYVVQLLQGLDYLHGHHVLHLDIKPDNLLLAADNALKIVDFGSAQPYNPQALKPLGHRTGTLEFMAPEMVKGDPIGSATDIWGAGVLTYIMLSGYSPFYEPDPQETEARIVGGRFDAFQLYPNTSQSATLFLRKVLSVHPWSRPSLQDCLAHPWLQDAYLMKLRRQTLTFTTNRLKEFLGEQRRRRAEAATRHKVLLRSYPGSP
UniProt Q9ET78: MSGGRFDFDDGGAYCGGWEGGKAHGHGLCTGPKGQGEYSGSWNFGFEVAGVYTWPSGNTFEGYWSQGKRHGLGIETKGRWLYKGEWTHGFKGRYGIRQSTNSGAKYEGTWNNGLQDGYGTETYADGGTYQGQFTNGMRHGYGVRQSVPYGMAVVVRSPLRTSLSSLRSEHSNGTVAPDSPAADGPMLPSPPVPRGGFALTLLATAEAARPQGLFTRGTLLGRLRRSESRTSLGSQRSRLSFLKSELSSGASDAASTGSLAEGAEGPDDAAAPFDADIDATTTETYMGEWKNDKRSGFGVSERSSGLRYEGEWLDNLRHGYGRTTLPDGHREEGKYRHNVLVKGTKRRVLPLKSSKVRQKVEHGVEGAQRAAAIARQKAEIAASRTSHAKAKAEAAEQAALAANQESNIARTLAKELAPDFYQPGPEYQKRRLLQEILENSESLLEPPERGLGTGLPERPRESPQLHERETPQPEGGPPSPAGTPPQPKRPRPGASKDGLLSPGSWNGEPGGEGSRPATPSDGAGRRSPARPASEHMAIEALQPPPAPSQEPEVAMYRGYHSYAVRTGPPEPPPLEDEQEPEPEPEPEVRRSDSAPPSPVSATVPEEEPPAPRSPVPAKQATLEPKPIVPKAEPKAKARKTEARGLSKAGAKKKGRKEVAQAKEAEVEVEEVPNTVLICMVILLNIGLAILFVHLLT

B1: Esd (Esterase D, a serine hydrolase) (enzyme, UniProt Q9R0P3 1-282)
chain: MALKQISSNRCFGGLQKVFEHSSVELKCKMRFAVYLPPQAESGKCPALYWLSGLTCTEQNFISKSGYQQAASEHGLVVIAPDTSPRGCNIKGEDDSWDFGTGAGFYVNATEDPWKANYRMYSYVTEELPQLINANFPVDPQRMSIFGHSMGGHGALICALKNPGKYRSVSAFAPICNPVLCSWGKKAFSGYLGPDESKWKAYDATCLVKAYSGSQIDILIDQGKDDEFLSNGQLLPDNFIAACTEKKIPVVFRLQEGYDHSYYFIATFIADHIRHHAKYLNA
B2: Fsd2 (Fibronectin Type III and SPRY Domain Containing 2) (protein, UniProt Q8BZ52 1-716)
chain: T1 sequence
B3: Jph1 (junctophilin 1) (protein, UniProt Q9ET80 1-660)
chain: MTGGRFDFDDGGTYCGGWEEGKAHGHGICTGPKGQGEYSGSWSHGFEVVGVYTWPSGNTYQGYWAQGKRHGLGVETKGKWMYRGEWSHGFKGRYGVRQSLCTPARYEGTWSNGLQDGYGVETYGDGGTYQGQWAGGMRHGYGVRQSVPYGMATVIRSPLRTSLASLRSEQSNGSVLHEAAAAAADSPAGTRGGFVLNFHADTELGKKKGGLFRRGSLLGSMKLRKSESKSSISSKRSSVRSDAAMSRISSSDANSTISFGDVDCDFCPVEDHVDATTTETYMGEWKNDKRNGFGISERSNGMKYEGEWANNKRHGYGCTVFPDGSKEEGKYKNNILVRGIRKQLIPIRNTKTREKVDRAIEGAQRAAAMARTKVEIANSRTAHARAKADAADQAALAARQECDIARAVARELSPDFYQPGPDYIKQRCQEGGDIKENPEEKVLEKPPSPKESPHFYRKGTTPPRSPESSPKQSHSPQPSSPEPSKKQNPSPGARLSQDKQSLAEEQVTAFVNKPSMSKAPAKELGASVSKYSGRHHVPNPSNGELHSQYHGYYVKLNTPQHPPEDREDDRGVSQSSSALVPRPSPNKWGPPKSVTKPVAKESKTEPKAKKSELAIPKNPASNDTCPSLEKEANSGPNSIMIVLVMLLNIGLAILFVHFLT
B4: Triadin (protein, UniProt E9Q9K5 1-693)
chain: MTEITAEGNASTTTTVIDNKNGCIPKSPGKVLKRSVTEDIVTTFSSPAAWLLVIALIITWSAVAIVMFDLVDYKNFSASSIAKIGSDPLKLVNDAVEETTDWIYGFFSLLSDIISSEGDEDDEDADEDIDKGEIEEPPLKRKEIHQEKAEKEEKPEKKIQTKASHREREKGKEKLKGEKPEKTATHKEKLEKKERPETKMMAKEDKKIKTKEKTEEKAKKEMKVGKQEKVKPTAAKAKETPKTPPKARKKDDKEMPAVHEQKDQYAFCRYMIDMFVHGDLKPGQSPVMPPPSLTPSKPALSTTALEEKEKEEKKKMEKKDTSDTKKKEKEVKKKSEETTIDGKGKEPGKPPETKQMTAKLTTQAAARKDEKKEESKKMRKPTEEQPKGKKQEKKEKHIEPAKTPKKEHPGPSEKLKKAKAEQAKEEIAAASTKKALHGKKEEKAKTVEQEVKKEKSGKSSSDLKDKEVKKEKSGKSSSDLKDKEPQLKNEEKSKPQVKKEAKLASSDKGQTRKQNITRPEQVIPHVKPEKAEHQEKGHPSIKKDKPKPSSKGAPEVPDSGKKKIEKSEKESKVPTREENLQVYNVTKAEKPGKIPKDSKEAPASKKDKEDSKEAPTSKKDKEDSKDVPHSKKDKEVTDDVSSPKKQTRPISFFQCVYLNGYNGYGFQFPVTPVQQPGENPGKTNSPGQKQQEQ
B5: phospholamban (protein, UniProt P61014 1-52)
chain: MEKVQYLTRSAIRRASTIEMPQQARQNLQNLFINFCLILICLLLICIIVMLL
B6: Casq2 (calsequestrin 2) (protein, UniProt O09161 20-415)
chain: EEGLNFPTYDGKDRVVSLSEKNLKQMLKRYDLLCLYYHEPVSSDKVSQKQFQLKEIVLELVAQVLEHKNIGFVMVDSRKEAKLAKRLGFSEEGSLYVLKGDRTIEFDGEFAADVLVEFLLDLIEDPVEIVNNKLEVQAFERIEDQTKLLGFFKNEDSEYYKAFQEAAEHFQPYIKFFATFDKAVAKKLSLKMNEVGFYEPFMDEPNVIPNKPYTEEELVEFVKEHQRPTLRRLRPEDMFETWEDDLNGIHIVAFAEKSDPDGYEFLEILKQVARDNTDNPDLSILWIDPDDFPLLVAYWEKTFKIDLFKPQIGVVNVTDADSIWMEIPDDDDLPTAEELEDWIEDVLSGKINTEDDDNEDEDDDGDDNDDDDDDDDDNDNSDEDNEDSDDDDDDDE

What was measured:
[1] = target: HA-Spegβ (V5/HA-tagged striated muscle preferentially expressed protein kinase β) (mouse (endogenous knock-in in HA-Speg mice)) (UniProt Q62407); assay: affinity purification with mass spectrometry; HA antibody IP from hearts of HA-Speg mice
[2] = target: T1, Fsd2 (Fibronectin Type III and SPRY Domain Containing 2) (mouse (endogenous in mouse muscle and heart)); assay: affinity purification with mass spectrometry; Fsd2 antibody IP from skeletal muscle of control mice; specific: 20x over IgG and P < 0.01
[3] = target: HA-Spegβ (V5/HA-tagged striated muscle preferentially expressed protein kinase β) (mouse (endogenous knock-in in HA-Speg mice)) (UniProt Q62407); assay: affinity purification with mass spectrometry; HA antibody IP from gastrocnemius muscle of HA-Speg mice; HA antibody pulldowns from WT muscle define nonspecific; >10x purification, Holm-Sidak test and/or FDR; IP buffer 50 mM Tris-HCl pH 7.4, 170 mM NaCl, 1 mM EDTA, 1% NP-40
[4] = target: RyR1 (ryanodine receptor 1, skeletal muscle Ca2+ release channel) (mouse (endogenous in mouse skeletal muscle)) (UniProt E9PZQ0); assay: affinity purification with mass spectrometry; RyR1 antibody IP from gastrocnemius muscle of control (Speg fl/fl) mice, also of Speg-KO and HA-Speg mice; specific: 20x over IgG and P < 0.01
[5] = target: Jph2 (junctophilin 2) (mouse (endogenous in mouse muscle and heart)) (UniProt Q9ET78); assay: affinity purification with mass spectrometry; Jph2 antibody IP from hearts of control mice; specific: P < 0.01 and 100x over IgG
[6] = target: RyR2 (ryanodine receptor 2, cardiac Ca2+ release channel) (mouse (endogenous in mouse heart)) (UniProt E9Q401); assay: affinity purification with mass spectrometry; RyR2 IP from hearts of control (Speg fl/fl) mice

Row | Binder | binding [1] | binding [3] | binding [4] | binding [5] | other results
1 | B1 | binds | binds | – | – | binding [2]: binds
2 | B2 | binds | binds | – | – | –
3 | B3 | – | binds | binds | – | –
4 | B4 | – | – | binds | binds | –
5 | B5 | – | – | – | – | binding [6]: binds
6 | B6 | – | – | – | binds | –
